In the supplement of paper PMC10849652:
Some of the results follow.

Chains of the proteins cited; added tags and fusions are not shown. Lines headed by an entry give the natural chain unless they say otherwise; changes in a name come on top.
UniProt Q9NVJ2: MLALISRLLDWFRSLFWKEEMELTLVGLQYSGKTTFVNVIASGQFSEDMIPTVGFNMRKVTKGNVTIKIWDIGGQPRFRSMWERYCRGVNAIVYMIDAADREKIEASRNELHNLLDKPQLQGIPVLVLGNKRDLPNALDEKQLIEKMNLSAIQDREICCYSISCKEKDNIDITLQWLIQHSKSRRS
UniProt Q8IUR7, whole entry, looked up: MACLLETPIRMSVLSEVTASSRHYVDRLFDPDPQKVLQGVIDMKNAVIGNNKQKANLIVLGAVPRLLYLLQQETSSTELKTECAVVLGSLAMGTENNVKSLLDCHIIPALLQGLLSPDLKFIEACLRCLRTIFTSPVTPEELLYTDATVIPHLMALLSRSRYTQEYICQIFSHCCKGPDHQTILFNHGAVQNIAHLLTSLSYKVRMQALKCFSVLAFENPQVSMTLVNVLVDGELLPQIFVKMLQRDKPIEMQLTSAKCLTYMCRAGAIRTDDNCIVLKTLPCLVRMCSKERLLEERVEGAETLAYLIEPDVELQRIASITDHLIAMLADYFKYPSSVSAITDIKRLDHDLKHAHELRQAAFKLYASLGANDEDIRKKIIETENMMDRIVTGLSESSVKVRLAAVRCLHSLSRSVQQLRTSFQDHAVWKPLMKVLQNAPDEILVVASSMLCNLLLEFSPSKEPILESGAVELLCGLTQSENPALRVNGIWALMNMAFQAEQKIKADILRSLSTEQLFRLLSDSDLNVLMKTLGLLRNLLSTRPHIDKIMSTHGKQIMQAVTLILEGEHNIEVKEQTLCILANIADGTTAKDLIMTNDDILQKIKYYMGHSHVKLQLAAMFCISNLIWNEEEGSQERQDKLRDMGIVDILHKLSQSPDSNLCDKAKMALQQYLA
UniProt P02654: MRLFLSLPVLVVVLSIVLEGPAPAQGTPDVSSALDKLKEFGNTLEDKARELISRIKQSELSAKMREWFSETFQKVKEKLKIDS
UniProt Q9H0R1: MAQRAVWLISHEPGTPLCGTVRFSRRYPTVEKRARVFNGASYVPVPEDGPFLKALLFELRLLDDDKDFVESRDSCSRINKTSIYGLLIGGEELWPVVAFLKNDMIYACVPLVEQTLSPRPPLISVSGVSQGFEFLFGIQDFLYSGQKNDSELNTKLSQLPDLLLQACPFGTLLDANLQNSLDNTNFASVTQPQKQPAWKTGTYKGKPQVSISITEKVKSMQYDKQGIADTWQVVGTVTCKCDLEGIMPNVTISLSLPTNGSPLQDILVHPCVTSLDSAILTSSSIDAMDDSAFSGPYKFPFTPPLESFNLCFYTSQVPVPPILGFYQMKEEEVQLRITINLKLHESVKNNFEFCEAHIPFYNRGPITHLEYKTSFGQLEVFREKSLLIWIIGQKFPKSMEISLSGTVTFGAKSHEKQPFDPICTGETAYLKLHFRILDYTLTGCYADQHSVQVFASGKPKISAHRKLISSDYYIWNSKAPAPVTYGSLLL
UniProt P49407: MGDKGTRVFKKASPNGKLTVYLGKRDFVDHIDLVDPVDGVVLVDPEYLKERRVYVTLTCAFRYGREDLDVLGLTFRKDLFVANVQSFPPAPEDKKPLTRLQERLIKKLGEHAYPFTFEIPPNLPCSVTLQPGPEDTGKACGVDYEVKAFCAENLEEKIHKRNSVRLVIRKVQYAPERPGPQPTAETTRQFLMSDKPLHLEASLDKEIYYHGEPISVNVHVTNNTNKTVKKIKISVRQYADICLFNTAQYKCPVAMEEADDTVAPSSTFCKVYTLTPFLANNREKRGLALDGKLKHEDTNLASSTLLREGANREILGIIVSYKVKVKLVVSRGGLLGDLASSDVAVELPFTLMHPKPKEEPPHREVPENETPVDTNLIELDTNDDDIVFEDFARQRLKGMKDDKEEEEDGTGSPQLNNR
UniProt P15289: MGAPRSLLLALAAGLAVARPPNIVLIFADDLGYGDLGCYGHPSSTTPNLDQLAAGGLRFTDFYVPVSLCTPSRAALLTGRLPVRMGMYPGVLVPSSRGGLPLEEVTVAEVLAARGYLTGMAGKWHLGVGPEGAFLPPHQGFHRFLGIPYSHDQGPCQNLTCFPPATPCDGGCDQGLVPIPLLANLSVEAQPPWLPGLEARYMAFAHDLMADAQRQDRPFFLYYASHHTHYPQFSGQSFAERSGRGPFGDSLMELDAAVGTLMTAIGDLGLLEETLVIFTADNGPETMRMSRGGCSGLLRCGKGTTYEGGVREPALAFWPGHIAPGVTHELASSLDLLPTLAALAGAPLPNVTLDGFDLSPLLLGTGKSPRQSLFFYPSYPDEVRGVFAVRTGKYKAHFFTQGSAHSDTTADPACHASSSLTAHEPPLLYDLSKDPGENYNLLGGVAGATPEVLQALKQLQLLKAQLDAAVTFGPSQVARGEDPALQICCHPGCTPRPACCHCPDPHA
UniProt Q92619: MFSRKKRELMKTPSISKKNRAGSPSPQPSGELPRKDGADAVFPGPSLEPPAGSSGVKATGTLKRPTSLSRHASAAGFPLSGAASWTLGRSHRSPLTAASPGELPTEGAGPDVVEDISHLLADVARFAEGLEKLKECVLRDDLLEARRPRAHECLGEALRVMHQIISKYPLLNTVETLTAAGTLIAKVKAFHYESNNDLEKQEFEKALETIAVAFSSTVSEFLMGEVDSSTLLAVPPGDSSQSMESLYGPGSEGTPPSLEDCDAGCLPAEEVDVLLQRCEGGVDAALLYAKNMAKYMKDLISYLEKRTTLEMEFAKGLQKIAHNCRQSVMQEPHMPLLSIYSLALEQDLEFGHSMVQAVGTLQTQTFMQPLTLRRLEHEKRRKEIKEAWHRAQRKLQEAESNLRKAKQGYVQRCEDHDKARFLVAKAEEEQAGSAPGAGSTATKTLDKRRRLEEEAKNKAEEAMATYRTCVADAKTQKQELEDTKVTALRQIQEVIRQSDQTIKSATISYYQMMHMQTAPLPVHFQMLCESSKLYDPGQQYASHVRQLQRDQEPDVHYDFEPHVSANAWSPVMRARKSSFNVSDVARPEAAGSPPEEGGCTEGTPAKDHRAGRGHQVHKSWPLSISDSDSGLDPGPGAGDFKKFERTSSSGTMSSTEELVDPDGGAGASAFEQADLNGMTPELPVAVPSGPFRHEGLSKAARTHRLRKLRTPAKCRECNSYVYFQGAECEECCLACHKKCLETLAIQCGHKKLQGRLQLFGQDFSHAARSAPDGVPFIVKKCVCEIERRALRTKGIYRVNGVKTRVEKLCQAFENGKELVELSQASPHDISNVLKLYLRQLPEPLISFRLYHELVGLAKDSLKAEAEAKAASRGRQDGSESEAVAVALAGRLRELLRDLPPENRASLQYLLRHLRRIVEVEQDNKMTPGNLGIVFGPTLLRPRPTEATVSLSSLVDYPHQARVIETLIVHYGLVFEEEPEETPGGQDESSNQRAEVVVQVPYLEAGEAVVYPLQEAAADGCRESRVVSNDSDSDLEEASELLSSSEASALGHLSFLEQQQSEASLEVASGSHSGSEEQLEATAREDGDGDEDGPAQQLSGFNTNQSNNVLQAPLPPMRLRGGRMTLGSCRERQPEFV
UniProt Q9Y4X5: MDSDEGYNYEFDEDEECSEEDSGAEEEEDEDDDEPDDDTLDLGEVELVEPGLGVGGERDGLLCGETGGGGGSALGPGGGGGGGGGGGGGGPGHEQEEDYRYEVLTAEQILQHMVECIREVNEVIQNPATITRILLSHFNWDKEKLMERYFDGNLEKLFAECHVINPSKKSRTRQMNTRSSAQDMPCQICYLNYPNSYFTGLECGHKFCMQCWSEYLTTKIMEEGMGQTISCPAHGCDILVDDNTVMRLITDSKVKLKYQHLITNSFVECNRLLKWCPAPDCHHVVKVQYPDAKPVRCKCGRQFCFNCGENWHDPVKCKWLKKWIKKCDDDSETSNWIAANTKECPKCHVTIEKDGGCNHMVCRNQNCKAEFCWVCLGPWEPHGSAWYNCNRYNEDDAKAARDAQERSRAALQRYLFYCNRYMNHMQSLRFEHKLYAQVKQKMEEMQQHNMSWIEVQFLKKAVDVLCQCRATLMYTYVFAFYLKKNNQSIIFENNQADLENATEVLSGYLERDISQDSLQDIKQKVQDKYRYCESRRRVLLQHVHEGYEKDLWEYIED
UniProt Q6NXE6: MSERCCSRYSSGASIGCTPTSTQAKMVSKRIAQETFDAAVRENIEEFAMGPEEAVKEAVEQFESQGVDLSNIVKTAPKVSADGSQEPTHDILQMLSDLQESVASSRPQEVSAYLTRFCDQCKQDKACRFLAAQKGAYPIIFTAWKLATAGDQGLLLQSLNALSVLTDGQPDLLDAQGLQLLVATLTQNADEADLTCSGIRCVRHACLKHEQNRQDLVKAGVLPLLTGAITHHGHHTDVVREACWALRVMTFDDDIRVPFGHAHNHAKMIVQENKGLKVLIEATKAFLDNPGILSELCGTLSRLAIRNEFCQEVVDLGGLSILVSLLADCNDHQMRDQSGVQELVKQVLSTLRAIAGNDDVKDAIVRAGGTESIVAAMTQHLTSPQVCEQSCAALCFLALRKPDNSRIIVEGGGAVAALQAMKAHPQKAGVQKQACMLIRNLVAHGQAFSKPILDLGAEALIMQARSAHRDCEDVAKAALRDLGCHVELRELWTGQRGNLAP
UniProt Q8NEU8: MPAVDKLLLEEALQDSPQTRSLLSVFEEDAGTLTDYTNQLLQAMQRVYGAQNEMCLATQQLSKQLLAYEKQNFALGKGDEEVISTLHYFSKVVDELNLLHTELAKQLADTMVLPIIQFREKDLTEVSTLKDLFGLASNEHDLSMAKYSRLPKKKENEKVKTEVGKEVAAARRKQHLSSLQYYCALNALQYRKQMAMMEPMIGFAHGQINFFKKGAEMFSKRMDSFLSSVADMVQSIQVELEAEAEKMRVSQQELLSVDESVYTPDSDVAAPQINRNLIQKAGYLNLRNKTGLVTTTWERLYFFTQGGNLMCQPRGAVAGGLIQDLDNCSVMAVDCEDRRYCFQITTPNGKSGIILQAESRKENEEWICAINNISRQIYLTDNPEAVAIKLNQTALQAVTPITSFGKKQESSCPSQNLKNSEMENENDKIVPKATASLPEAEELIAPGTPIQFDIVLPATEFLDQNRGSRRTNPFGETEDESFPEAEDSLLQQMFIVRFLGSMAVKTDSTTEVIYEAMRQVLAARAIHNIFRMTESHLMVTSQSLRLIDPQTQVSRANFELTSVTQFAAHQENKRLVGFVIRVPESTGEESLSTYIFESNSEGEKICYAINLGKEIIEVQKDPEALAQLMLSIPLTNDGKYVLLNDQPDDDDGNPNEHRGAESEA
UniProt Q8N392: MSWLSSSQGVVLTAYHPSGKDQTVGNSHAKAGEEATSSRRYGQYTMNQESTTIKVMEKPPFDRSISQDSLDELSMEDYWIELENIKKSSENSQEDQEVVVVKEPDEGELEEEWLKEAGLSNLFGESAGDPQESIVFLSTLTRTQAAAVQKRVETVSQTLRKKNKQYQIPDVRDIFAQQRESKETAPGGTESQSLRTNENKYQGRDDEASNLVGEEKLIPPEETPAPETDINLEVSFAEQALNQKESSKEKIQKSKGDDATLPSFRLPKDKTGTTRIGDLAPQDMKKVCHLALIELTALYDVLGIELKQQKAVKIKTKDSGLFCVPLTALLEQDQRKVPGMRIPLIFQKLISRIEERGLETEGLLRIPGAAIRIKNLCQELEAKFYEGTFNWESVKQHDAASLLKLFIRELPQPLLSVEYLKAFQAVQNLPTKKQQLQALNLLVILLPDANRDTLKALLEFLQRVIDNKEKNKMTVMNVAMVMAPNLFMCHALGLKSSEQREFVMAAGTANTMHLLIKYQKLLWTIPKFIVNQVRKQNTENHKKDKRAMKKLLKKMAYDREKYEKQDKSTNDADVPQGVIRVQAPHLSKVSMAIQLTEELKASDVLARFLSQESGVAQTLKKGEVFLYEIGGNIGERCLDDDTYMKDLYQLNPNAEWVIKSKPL
UniProt P52565: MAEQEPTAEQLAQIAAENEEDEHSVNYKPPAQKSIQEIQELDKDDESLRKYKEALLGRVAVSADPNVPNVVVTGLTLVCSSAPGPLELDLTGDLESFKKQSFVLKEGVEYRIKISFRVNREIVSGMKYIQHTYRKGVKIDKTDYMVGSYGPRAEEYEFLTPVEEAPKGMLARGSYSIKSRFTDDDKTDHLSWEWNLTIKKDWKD
UniProt Q9HDC9: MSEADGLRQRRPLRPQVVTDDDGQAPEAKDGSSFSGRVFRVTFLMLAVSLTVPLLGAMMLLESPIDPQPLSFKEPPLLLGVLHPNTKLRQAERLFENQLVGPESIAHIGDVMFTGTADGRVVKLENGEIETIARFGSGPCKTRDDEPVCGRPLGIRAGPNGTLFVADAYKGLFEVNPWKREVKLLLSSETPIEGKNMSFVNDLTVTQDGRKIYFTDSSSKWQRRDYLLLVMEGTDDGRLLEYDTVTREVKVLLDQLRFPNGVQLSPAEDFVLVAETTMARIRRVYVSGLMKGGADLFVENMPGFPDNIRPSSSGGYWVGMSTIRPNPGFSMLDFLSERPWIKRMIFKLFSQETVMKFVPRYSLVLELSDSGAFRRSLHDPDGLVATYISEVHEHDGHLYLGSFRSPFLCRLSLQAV

Legend:
Assay in all cases: log2 fold change, soluble protein after heating vs DMSO (PISA); higher = thermal stabilisation; K562 lysate, 10 uM; active = over 0.2 and 3.5 SD of the protein, either way, in both replicates (recomputed)
[1] = compound: C1=CC=C(C=C1)[C@H](COC2=CC3=C(C=C2)NC(=O)N3)NC(=O)C4=CC=CN(C4=O)CC5=CC(=C(C=C5)F)F
In short: (§1)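 Log-two fold change in thermal stability relative to solvent controls is reported from duplicates. For each sample, crude K562 extract from dounce-homogenised pellets in PBS pH 7.4 with 1 mM MgCl2, at 1 mg/mL protein, was treated with 10 μM compound for 30 min. Aliquots heated for 3 min across 48°C-58°C were pooled, brought to 0.5% NP-40 at 4°C and cleared at 21,000xg for 90 min. The supernatant was quantified by TMTpro 16plex LC-MS/MS with channel sums equalised.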

[2] = compound: CC1=C(SC2=C1C(=N[C@H](C3=NN=C(N32)C)CC(=O)N)C4=CC=C(C=C4)Cl)C
In short: as §1

[3] = compound: CC1=C2C(=CC=C1)N=C(N(C2=O)C3=CC=CC=C3C)CN4C=NC5=C(N=CN=C54)N
In short: as §1

[4] = compound: Cc1sc2c(c1C)C(c1ccc(Cl)cc1)=N[C@@H](CC(=O)OC(C)(C)C)c1nnc(C)n1-2
In short: as §1

[5] = compound: c1ccc([C@@H]2C[C@H]2NC2CCNCC2)cc1
In short: as §1

Measured: log2 fold change

AP4M1 (UniProt O00189)
inactive: [1] -0.03 | [2] -0.002 | [3] 0.046 | [4] 0.062 | [5] -0.093

ARF6 (UniProt P62330)
inactive: [1] 0.022 | [2] -0.009 | [3] 0.025 | [4] -0.06 | [5] -0.022

ARL2BP (UniProt Q9Y2Y0)
inactive: [1] -0.086 | [2] 0.019 | [3] -0.031 | [4] -0.022 | [5] 0.013

ARL8B (UniProt Q9NVJ2)
inactive: [1] 0.018 | [2] -0.027 | [3] 0.017 | [4] -0.053 | [5] -0.092

ASAP3 (UniProt Q8TDY4)
inactive: [1] 0.078 | [2] 0 | [3] 0.012 | [4] 0.039 | [5] 0.063

ARNT (UniProt P27540)
inactive: [1] 0.036 | [2] 0.001 | [3] 0.092 | [4] 0 | [5] -0.038

APBA2 (UniProt Q99767)
inactive: [1] -0.014 | [2] 0.033 | [3] 0.017 | [4] -0.007 | [5] -0.106

ARMCX3 (UniProt Q9UH62)
inactive: [1] 0.015 | [2] 0.009 | [3] 0.029 | [4] -0.074 | [5] 0.053

ARMC8 (UniProt Q8IUR7)
inactive: [1] 0.048 | [2] 0 | [3] -0.009 | [4] 0.002 | [5] 0.022

ARPIN isoform 2 (UniProt Q7Z6K5)
inactive: [1] -0.019 | [2] 0.034 | [3] 0.109 | [4] -0.159 | [5] -0.021

ARHGEF7 isoform 5 (UniProt Q14155)
inactive: [1] -0.035 | [2] 0.039 | [3] 0.008 | [4] 0.011 | [5] 0.025

ARHGAP6 (UniProt O43182)
inactive: [1] -0.026 | [2] -0.023 | [3] -0.012 | [4] 0.018 | [5] 0.02

ARG2 (UniProt P78540)
inactive: [1] 0.042 | [2] 0.038 | [3] 0.012 | [4] -0.015 | [5] -0.009

Reprinted from the entries so far (3 entries):
ARHGEF7 isoform 5 (UniProt Q14155)
inactive: [1] -0.035 | [2] 0.039 | [3] 0.008 | [4] 0.011 | [5] 0.025

ARHGAP6 (UniProt O43182)
inactive: [1] -0.026 | [2] -0.023 | [3] -0.012 | [4] 0.018 | [5] 0.02

ARG2 (UniProt P78540)
inactive: [1] 0.042 | [2] 0.038 | [3] 0.012 | [4] -0.015 | [5] -0.009

Following part

APPL1 (UniProt Q9UKG1)
inactive: [1] -0.016 | [2] 0.015 | [3] 0.019 | [4] 0.034 | [5] -0.011

ARFIP2 (UniProt P53365)
inactive: [1] 0.041 | [2] -0.031 | [3] 0.018 | [4] -0.104 | [5] 0.017

APOC1 (UniProt P02654)
inactive: [1] 0.04 | [2] 0.06 | [3] -0.082 | [4] -0.015 | [5] 0.128

AP5M1 (UniProt Q9H0R1)
inactive: [1] 0.018 | [2] -0.142 | [3] -0.061 | [4] 0.008 | [5] 0.028

ARHGEF2 (UniProt Q92974)
inactive: [1] 0.023 | [2] -0.007 | [3] 0.034 | [4] 0.008 | [5] 0.05

APRT (UniProt P07741)
inactive: [1] -0.027 | [2] 0.004 | [3] 0.021 | [4] 0.023 | [5] -0.02

ARRB1 (UniProt P49407)
inactive: [1] 0.039 | [2] 0.018 | [3] 0.018 | [4] 0.021 | [5] -0.026

ARSA (UniProt P15289)
inactive: [1] 0.161 | [2] 0.112 | [3] -0.075 | [4] -0.026 | [5] -0.031

ARPP19 (UniProt H3BMD8)
inactive: [1] 0.034 | [2] -0.014 | [3] -0.064 | [4] -0.062 | [5] -0.152

APOOL (UniProt Q6UXV4)
inactive: [1] 0.024 | [2] 0.009 | [3] -0.005 | [4] 0.012 | [5] -0.044

ARFGAP2 (UniProt Q8N6H7)
inactive: [1] 0.065 | [2] -0.002 | [3] 0.023 | [4] 0.03 | [5] 0.005

ARHGAP12 (UniProt Q8IWW6)
inactive: [1] 0.01 | [2] 0.036 | [3] 0.098 | [4] -0.029 | [5] -0.085

ASAH1 isoform 2 (UniProt Q13510)
inactive: [1] 0.112 | [2] 0.016 | [3] -0.027 | [4] 0.005 | [5] -0.012

ARFGEF2 (UniProt Q9Y6D5)
inactive: [1] -0.043 | [2] 0.048 | [3] 0.031 | [4] -0.028 | [5] 0.017

APOO (UniProt Q9BUR5)
inactive: [1] -0.046 | [2] -0.021 | [3] 0.015 | [4] 0.003 | [5] -0.036

ARMC1 (UniProt Q9NVT9)
inactive: [1] 0.003 | [2] 0.017 | [3] 0.025 | [4] 0 | [5] -0.01

ARV1 (UniProt Q9H2C2)
inactive: [1] -0.085 | [2] -0.075 | [3] -0.044 | [4] -0.034 | [5] 0.01

ARHGAP45 isoform 2 (UniProt Q92619)
inactive: [1] -0.086 | [2] -0.042 | [3] -0.007 | [4] 0.017 | [5] 0.077

ARIH1 (UniProt Q9Y4X5)
inactive: [1] 0.02 | [2] -0.048 | [3] -0.005 | [4] -0.06 | [5] -0.05

APOE (UniProt P02649)
inactive: [1] -0.059 | [2] 0.054 | [3] -0.036 | [4] -0.022 | [5] 0.026

APOBEC3C (UniProt Q9NRW3)
inactive: [1] -0.003 | [2] 0.032 | [3] 0.013 | [4] 0.014 | [5] -0.062

ARMC6 (UniProt Q6NXE6)
inactive: [1] -0.046 | [2] -0.012 | [3] -0.017 | [4] 0.003 | [5] 0.043

ARMT1 (UniProt Q9H993)
inactive: [1] -0.042 | [2] 0.008 | [3] -0.01 | [4] -0.01 | [5] 0.073

ARHGAP4 isoform 2 (UniProt P98171)
inactive: [1] 0.022 | [2] 0.013 | [3] 0.116 | [4] -0.023 | [5] 0.002

ARID3B (UniProt Q8IVW6)
inactive: [1] -0.074 | [2] -0.038 | [3] 0.108 | [4] -0.018 | [5] 0

APPL2 isoform 3 (UniProt Q8NEU8)
inactive: [1] 0.011 | [2] 0.022 | [3] -0.008 | [4] -0.078 | [5] 0.066

ARL6IP5 (UniProt O75915)
inactive: [1] -0.038 | [2] -0.068 | [3] -0.018 | [4] -0.003 | [5] 0.083

ARL2 (UniProt P36404)
inactive: [1] 0.01 | [2] 0.036 | [3] 0.005 | [4] 0.03 | [5] 0.059

ARL13B (UniProt Q3SXY8)
inactive: [1] 0.087 | [2] 0.03 | [3] 0.012 | [4] 0.019 | [5] 0.145

ARFGAP3 (UniProt Q9NP61)
inactive: [1] 0.083 | [2] -0.031 | [3] 0.011 | [4] 0.01 | [5] -0.051

ARPC2 (UniProt O15144)
inactive: [1] 0.031 | [2] 0 | [3] 0.008 | [4] -0.007 | [5] 0

ARHGEF11 isoform 2 (UniProt O15085)
inactive: [1] 0.056 | [2] 0.045 | [3] -0.067 | [4] -0.026 | [5] 0.1

ARPC5 (UniProt O15511)
inactive: [1] 0.048 | [2] -0.009 | [3] 0.024 | [4] -0.027 | [5] 0.001

ARHGAP17 (UniProt Q68EM7)
inactive: [1] 0.021 | [2] 0.002 | [3] 0.011 | [4] 0.009 | [5] 0.095

ARHGAP18 (UniProt Q8N392)
inactive: [1] -0.007 | [2] -0.015 | [3] 0.007 | [4] -0.005 | [5] 0

ARHGEF12 (UniProt Q9NZN5)
inactive: [1] -0.03 | [2] 0.017 | [3] -0.001 | [4] -0.019 | [5] -0.076

ARHGDIA (UniProt P52565)
inactive: [1] 0.036 | [2] 0.003 | [3] 0.003 | [4] 0.008 | [5] -0.052

API5 (UniProt Q9BZZ5)
inactive: [1] 0.001 | [2] 0.01 | [3] 0.005 | [4] -0.037 | [5] -0.11

APMAP (UniProt Q9HDC9)
inactive: [1] -0.005 | [2] -0.022 | [3] -0.001 | [4] -0.061 | [5] 0.005

ARHGAP21 (UniProt Q5T5U3)
inactive: [1] 0.031 | [2] 0.117 | [3] 0.031 | [4] 0.008 | [5] 0.124
